One block for each binder: values may come before it.
Target: T1, CLL1-Fc fusion protein (Acrobiosystems) (UniProt Q5QGZ9 65-265)
T1 construct: Bought reagent; not shown: Fc part, detected with FITC-labeled anti-human Fc
T1 sequence (looked up): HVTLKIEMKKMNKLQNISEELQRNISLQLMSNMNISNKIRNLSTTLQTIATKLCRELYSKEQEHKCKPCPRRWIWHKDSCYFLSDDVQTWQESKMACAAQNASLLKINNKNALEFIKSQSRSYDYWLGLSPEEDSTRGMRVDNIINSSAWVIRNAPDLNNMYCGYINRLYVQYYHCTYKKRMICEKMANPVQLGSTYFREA
Assay: flow cytometry: CAR-T cells stained with CLL1-Fc fusion protein and FITC-labeled anti-human Fc; percent positive cells (T mock 1.23%)
Excerpt: Flow cytometry was used to detect the expression or CAR molecules on the surface of T cells, and the CLL1-Fc fusion protein (Acrobiosystems) was used to detect the expression of CAR. The secondary antibody was FITC-Labeled anti-human Fc, and T cell (T mock) not transfected with CAR was used as a negative control.

CAR Positive Rate: 39.4%
B1: 27H4-CAR (other)
chain: DIVMSQSPSSLAVSVGEKVTMSCKSSQSLLYSDNQKNYLAWYQQKPGQSPKLLIYWASTRESGVPDRFTGSGSGTDFTLTISSVKAEDLAVYYCQQYYTYPYTFGGGTKLEIKGGGGSGGGGSGGGGSEVQLQQSGPELVKPGASVKISCKASGYSFTGYHMHWVKQSHVKSLEWIGRINPYNGAASHNQKFKDKATLTVDKSSSTAYMELHSLTSEDSAVYYCARGWDYDGGYYAMDYWGQGTSVTVSSTTTPAPRPPTPAPTIASQPLSLRPEACRPAAGGAVHTRGLDFACDIYIWAPLAGTCGVLLLSLVITLYCKRGRKKLLYIFKQPFMRPVQTTQEEDGCSCRFPEEEEGGCELRVKFSRSADAPAYQQGQNQLYNELNLGRREEYDVLDKRRGRDPEMGGKPRRKNPQEGLYNELQKDKMAEAYSEIGMKGERRRGKGHDGLYQGLSTATKDTYDALHMQALPPR
notes: also called 27H4-CAR-T (T cells carrying it); chimeric antigen receptor targeting CLL1 with Anti-CLL1 scFv (27H4)

CAR Positive Rate: 33.6%
B2: H27H4-CAR (other)
chain: DIQMTQSPSSLSASVGDRVTITCKSSQSLLYSDNQKNYLAWYQQKPGKAPKLLIYWASTRESGVPSRFSGSGSGTDFTLTISSLQPEDFATYYCQQYYTYPYTFGQGTKLEIKGGGGSGGGGSGGGGSEVQLVQSGAEVKKPGASVKVSCKASGYTFTGYHMHWVRQAPGQRLEWMGRINPYNGAASHNQKFKDRVTITRDTSASTAYMELSSLRSEDTAVYYCARGWDYDGGYYAMDYWGQGTLVTVSSTTTPAPRPPTPAPTIASQPLSLRPEACRPAAGGAVHTRGLDFACDIYIWAPLAGTCGVLLLSLVITLYCKRGRKKLLYIFKQPFMRPVQTTQEEDGCSCRFPEEEEGGCELRVKFSRSADAPAYQQGQNQLYNELNLGRREEYDVLDKRRGRDPEMGGKPRRKNPQEGLYNELQKDKMAEAYSEIGMKGERRRGKGHDGLYQGLSTATKDTYDALHMQALPPR
notes: also called humanized 27H4; H27H4-CAR-T (T cells carrying it)
